Experimental data reported in PubChem BioAssay AID504467 (National Center for Advancing Translational Sciences (NCATS), 2011).
Screen size: about 330,000 compounds; about 7,700 (2.3%) were called active. Inconclusive results, whose numbers are uncertain, are shown with a selection of clear calls. The call rests on the fitted dose curve; in most records, active means well fitted inhibition curve with a large enough effect; inconclusive means small, poorly fitted or top-dose-only effect, or effect the other way; inactive means flat fitted curve, though single readings scatter. Potencies of inconclusive entries are doubtful fits and often do not repeat.

assay: qHTS screen for small molecules that inhibit ELG1-dependent DNA repair in human embryonic kidney (HEK293T) cells expressing luciferase-tagged ELG1; settings: HEK293T ELG1-luciferase reporter, luminescence, 16 h, DNA damage induced by 5-fluorouridine; series mostly up to 46.1 µM; further: nearly all actives have a fitted effect of over 55% in size
Outline: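 5-Fluorouridine DNA damage + compound/DMSO, 2,000 cells/well, 16 h, 37 °C/5% CO2. ONE-Glo, 30 min RT, luminescence. Readout = decrease in reporter signal.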
Potency means the concentration at half of the fitted maximal effect.

| Structure (SMILES) | Potency |
| --- | --- |
| CCc1cccc(NC(=O)c2sc3nc4n(c(=O)c3c2C)CCC4)c1 | inconclusive: 13 µM [activator, partial curve] |
| CCOC(=O)C(C)Sc1nc2c(cnn2-c2ccc(C)cc2)c(=O)[nH]1 (stereo unspecified) | inconclusive: 16.4 µM [inhibitor, partial curve] |
| C/C(=N\NC(=O)c1ccccc1F)c1ccccn1 | inconclusive: 2.59 µM [activator, full curve] |
| CCOC(=O)CNC(=S)N(Cc1ccccc1F)C1CCCCC1 | inconclusive: 18.3 µM [inhibitor, partial curve, poor fit] |
| Cc1ccccc1-c1nc(S(=O)(=O)c2ccc(Cl)cc2)c(NCCN2CCOCC2)o1 | inactive |
| CCCn1c(N2CCN(Cc3ccc(Cl)cc3)CC2)nc2ccccc21 | inconclusive: 32.6 µM [inhibitor, partial curve, poor fit] |
| Cc1ccc(S(=O)(=O)NCC(=O)OCC(=O)Nc2cccc(S(=O)(=O)N3CCOCC3)c2)cc1 | inactive |
| CSc1nc(-c2ccc(Cl)cc2)nn1C(=O)c1ccco1 | inconclusive: 20.6 µM [activator, partial curve] |
| Cc1cc(NS(=O)(=O)c2ccc(NC(=S)NC(=O)c3ccccc3)cc2)no1 | inconclusive: 16.4 µM [activator, partial curve, poor fit] |
| COc1ccc(NS(=O)(=O)c2cccc(C(=O)N/N=C/c3ccc4c(c3)OCCO4)c2)cc1 | inactive |
| O=C(C1=NNCC1c1ccccc1)C1CO1 (stereo unspecified) | inactive |
| O=C(Nc1ccccc1N1CCOCC1)c1cccc(NS(=O)(=O)c2ccc(F)c(F)c2)c1 | inconclusive: 11.6 µM [inhibitor, partial curve, poor fit] |
| CCOc1ccc(OCCn2nnc3ccccc3c2=O)cc1 | inconclusive: 20.6 µM [activator, partial curve] |
| CCc1ccc(-c2ccc(C(=O)O)cc2)nc1 | inconclusive: 7.31 µM [activator, partial curve] |
| CC1CCCCN1C(=O)CSc1nnc(-c2ccccc2O)o1 (stereo unspecified) | inconclusive: 7.3 µM [activator, partial curve] |
| CCN=C1SC(C(=O)Nc2cccc(Br)c2)CC(=O)N1CC (stereo unspecified) | inconclusive: 29.1 µM [inhibitor, single point] |
| CC(=O)OC1CC(C)(C)N(OC(=O)c2ccc(N)cc2)C(C)(C)C1 | inactive |
| Cc1cc(C)n(CC(O)COc2ccc(Cl)cc2)n1 (stereo unspecified) | inactive |
| CCOC(=O)CC(=O)CSc1nc2c(c(-c3cccs3)c1C#N)CCC2 | inactive |
| Nc1cccnc1-n1nc(C(F)(F)F)cc1C(F)(F)F | inactive |
| CCN(CC)C1CCN(C(=O)c2cc(COc3cccc4cccnc34)on2)C1 (stereo unspecified) | inconclusive: 1.16 µM [activator, single point] |
| N#Cc1ccc2ccn(CC(=O)N3CCCc4ccccc43)c2c1 | inconclusive: 18.4 µM [inhibitor, single point] |
| COc1ccc(-c2noc(CCCC(=O)NC3CCCCC3)n2)cc1OC | inactive |

Three entries from above, ordered by count of non-hydrogen atoms, ascending.

| Structure (SMILES) | Potency |
| --- | --- |
| CC1CCCCN1C(=O)CSc1nnc(-c2ccccc2O)o1 (stereo unspecified) | inconclusive: 7.3 µM [activator, partial curve] |
| CCN(CC)C1CCN(C(=O)c2cc(COc3cccc4cccnc34)on2)C1 (stereo unspecified) | inconclusive: 1.16 µM [activator, single point] |
| O=C(Nc1ccccc1N1CCOCC1)c1cccc(NS(=O)(=O)c2ccc(F)c(F)c2)c1 | inconclusive: 11.6 µM [inhibitor, partial curve, poor fit] |

Next entries

| Structure (SMILES) | Potency |
| --- | --- |
| Clc1ccc(Cn2nnc(-c3ccc(N4CCOCC4)cc3)n2)cc1 | inactive |
| O=C(Nc1cccnc1)c1cnc2ccccc2n1 | inconclusive: 18.4 µM [activator, partial curve] |
| O=C(CN1C(=O)NC2(CCCCCC2)C1=O)Nc1ccc(Cl)cc1Cl | inactive |
| O=C(c1cc2nc(-c3ccco3)cc(C(F)(F)F)n2n1)N1CCCCCC1 | inactive |
| O=C(CSc1ccc2c(c1)OCCO2)Nc1cccnc1Cl | inconclusive: 29.1 µM [inhibitor, single point] |
| COc1ccc(C(=O)N2CCOCC2)cc1Br | inactive |
| O=C(O)COCC(=O)NCc1csc2ccc(Cl)cc12 | inconclusive: 18.3 µM [inhibitor, single point] |
| O=Cc1c(N2CCN(c3cccc(Cl)c3)CC2)nc2ccccn2c1=O | inconclusive: 29.1 µM [inhibitor, single point] |
| COc1ccc(NC(=S)NC(=O)c2ccccc2)cn1 | inconclusive: 8.2 µM [activator, partial curve] |
| O=C1N[C@@H](c2ccccc2)COC(=O)[C@@H](Cc2ccc(F)cc2)C/C=C\C[C@@H]1CC(=O)N(CCO)Cc1ccccc1 | active: 20.6 µM |
| O=C(NCc1ccco1)c1nc(-c2ccc(F)cc2)no1 | inconclusive: 29.1 µM [activator, single point] |
| Cc1cc(C)c(S(=O)(=O)N2CCC(C(=O)NCc3ccncc3)CC2)c(C)c1 | inconclusive: 25.9 µM [inhibitor, single point] |
| Cc1ccc2nc(-c3ccc(NC(=O)CN4C(=O)c5ccccc5C4=O)cc3)sc2c1 | inconclusive: 3.66 µM [activator, full curve] |
| Cc1noc(C)c1NC(=O)N(C)C[C@H]1Oc2c(NS(=O)(=O)c3cn(C)cn3)cccc2C(=O)N([C@H](C)CO)C[C@@H]1C | inconclusive: 20.6 µM [activator, single point] |
| CC(C)[C@H](NC(=O)[C@@H]1Cc2ccccc2CN1)C(=O)Nc1ccc2c(c1)OCO2 | inactive |
| O=C(NCc1cccs1)c1cc2c(s1)CCCC2 | inconclusive: 10 µM [activator, partial curve] |
| COc1ccc(-c2nc(CCNC(=O)c3ccco3)cs2)cc1OC | inconclusive: 20.6 µM [inhibitor, single point] |
| O=C(Cc1cccs1)N/N=C\c1ccc(O)cc1 | inconclusive: 18.3 µM [activator, partial curve] |
| COCCn1ccc2c(OCC(=O)Nc3cc(OC)ccc3OC)cccc2c1=O | inconclusive: 23.1 µM [inhibitor, single point] |
| CCN(Cc1ccccc1)C(=O)COC(=O)CNC(=O)c1ccc(C)s1 | inactive |
| Cc1cccc(-c2nnn(CC/C(N)=N/O)n2)c1 | inconclusive: 13 µM [activator, partial curve] |
| COc1ccc(NC(=O)C2CCN(S(=O)(=O)c3cccc4cccnc34)CC2)cc1 | inconclusive: 25.9 µM [inhibitor, single point] |
| CC(=O)Nc1ccc(/C=N/Nc2nncc3ccccc23)cc1 | inconclusive: 5.17 µM [activator, partial curve] |
